Values of other authors, collected in patent US10059681B2, “Disubstituted maleic anhydrides with altered kinetics of ring closure” (Arrowhead Madison Inc., priority 2011, dated 2018).
At least one compound was matched to its structure with a doubt left.

SMILES: CNC(=O)C1=C(C(=O)O)CCCC1
- amine release, times faster than respective 2-methylmaleamate: 17.5 times
- amine release, times slower than 2,3-dimethylmaleamate: 32 times
